Data on 4 molecules can be found in publication PMC9686995.

Protein sequences, listed by entry. Tags and fused reporters are not part of them.
UniProt Q21126: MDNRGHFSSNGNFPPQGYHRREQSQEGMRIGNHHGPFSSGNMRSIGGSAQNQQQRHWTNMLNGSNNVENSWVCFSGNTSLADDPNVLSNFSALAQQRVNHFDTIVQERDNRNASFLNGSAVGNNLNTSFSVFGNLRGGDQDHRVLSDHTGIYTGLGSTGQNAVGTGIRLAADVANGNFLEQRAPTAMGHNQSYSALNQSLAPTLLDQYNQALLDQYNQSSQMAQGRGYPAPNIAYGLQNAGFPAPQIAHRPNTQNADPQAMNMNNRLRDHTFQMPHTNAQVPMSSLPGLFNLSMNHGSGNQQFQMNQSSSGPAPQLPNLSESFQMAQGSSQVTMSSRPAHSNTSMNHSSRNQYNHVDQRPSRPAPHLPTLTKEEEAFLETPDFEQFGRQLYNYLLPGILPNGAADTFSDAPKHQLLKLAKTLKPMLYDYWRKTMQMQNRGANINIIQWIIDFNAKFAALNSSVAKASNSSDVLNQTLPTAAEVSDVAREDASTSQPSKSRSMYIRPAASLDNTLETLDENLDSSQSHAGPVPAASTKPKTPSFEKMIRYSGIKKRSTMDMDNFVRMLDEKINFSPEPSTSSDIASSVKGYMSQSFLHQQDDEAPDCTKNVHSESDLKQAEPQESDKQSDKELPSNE
UniProt Q20937: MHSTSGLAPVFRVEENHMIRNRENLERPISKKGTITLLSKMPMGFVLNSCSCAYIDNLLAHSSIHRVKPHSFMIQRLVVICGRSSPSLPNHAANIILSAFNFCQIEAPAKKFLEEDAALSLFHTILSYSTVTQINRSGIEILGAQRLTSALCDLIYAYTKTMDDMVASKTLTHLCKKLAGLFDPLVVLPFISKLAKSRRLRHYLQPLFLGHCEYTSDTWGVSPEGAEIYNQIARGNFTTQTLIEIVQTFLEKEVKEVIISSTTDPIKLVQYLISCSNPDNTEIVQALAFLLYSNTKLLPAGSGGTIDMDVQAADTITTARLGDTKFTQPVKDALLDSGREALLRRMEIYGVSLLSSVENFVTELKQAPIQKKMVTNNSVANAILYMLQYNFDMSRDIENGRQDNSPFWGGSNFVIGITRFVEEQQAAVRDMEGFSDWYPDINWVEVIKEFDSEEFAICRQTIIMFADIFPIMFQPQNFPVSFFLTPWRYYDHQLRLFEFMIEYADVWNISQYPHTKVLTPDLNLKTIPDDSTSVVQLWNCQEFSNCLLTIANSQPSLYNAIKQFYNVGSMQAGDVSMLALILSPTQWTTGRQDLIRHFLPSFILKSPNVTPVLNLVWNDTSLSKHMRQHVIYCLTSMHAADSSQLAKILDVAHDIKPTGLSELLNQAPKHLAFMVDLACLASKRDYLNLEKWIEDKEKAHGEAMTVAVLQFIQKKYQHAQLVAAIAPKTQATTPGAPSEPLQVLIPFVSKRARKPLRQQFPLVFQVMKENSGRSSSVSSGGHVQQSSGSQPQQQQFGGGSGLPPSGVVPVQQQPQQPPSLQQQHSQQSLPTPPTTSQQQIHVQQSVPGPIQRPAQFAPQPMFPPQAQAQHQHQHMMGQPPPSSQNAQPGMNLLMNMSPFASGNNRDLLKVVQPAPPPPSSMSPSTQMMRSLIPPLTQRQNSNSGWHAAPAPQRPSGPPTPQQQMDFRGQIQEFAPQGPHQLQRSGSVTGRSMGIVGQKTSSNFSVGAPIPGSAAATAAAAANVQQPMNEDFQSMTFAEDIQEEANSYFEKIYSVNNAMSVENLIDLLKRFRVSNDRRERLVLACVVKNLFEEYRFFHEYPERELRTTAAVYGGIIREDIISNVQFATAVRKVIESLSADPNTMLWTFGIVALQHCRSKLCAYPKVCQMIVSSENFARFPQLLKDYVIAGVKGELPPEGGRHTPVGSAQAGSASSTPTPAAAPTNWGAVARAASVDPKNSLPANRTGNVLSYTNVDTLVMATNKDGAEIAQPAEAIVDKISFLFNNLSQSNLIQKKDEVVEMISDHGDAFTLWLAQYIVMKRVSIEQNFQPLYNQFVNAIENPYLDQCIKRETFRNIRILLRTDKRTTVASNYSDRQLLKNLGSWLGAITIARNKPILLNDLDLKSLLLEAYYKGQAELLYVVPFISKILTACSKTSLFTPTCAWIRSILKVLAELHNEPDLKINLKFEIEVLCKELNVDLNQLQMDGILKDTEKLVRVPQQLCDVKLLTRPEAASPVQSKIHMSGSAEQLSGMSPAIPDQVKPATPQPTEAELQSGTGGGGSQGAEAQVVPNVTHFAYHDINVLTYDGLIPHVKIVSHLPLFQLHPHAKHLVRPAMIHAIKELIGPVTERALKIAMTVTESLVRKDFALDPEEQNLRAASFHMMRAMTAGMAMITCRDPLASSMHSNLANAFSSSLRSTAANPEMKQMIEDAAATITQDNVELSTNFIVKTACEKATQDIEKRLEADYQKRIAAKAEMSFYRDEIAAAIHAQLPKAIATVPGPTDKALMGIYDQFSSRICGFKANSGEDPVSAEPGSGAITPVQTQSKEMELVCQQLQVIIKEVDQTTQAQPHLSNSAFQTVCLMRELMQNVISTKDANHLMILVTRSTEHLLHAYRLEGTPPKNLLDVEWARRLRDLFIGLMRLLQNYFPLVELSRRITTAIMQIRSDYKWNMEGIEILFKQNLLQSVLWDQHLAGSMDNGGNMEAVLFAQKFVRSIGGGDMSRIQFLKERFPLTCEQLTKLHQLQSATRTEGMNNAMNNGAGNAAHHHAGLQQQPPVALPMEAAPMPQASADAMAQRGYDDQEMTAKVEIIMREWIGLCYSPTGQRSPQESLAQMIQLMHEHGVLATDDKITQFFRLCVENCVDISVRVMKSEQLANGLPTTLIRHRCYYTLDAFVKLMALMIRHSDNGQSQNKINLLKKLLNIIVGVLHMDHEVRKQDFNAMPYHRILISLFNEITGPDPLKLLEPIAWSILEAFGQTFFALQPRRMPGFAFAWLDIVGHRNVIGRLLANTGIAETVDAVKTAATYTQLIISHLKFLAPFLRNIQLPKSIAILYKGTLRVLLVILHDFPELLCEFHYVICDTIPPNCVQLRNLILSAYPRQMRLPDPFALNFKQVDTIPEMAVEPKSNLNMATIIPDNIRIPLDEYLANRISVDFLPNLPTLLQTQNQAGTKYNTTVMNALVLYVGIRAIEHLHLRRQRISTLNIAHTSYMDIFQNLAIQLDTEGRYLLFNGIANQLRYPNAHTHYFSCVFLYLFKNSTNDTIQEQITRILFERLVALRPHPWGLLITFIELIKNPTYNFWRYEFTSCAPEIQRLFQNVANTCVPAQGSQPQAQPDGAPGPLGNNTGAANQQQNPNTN

No constants are given. Whether binding was seen depends on the method and setting. Binding seen in cells or lysates may run through a third protein. Here binding means that the protein was enriched with, or labelled near, the bait; the list need not be complete.

The labels stand for the following.
B1: OMA-1 (protein, UniProt G5EC86 1-407)
chain: MNVNGENNEKIDEHHLESSLAGVPTLPVSPLDHAKDLSQTNPNAQIGDLVTQTANLIAIKKQLLEDIAFNQHIQSMQVRAIQSFPQNNQVAPPFQQFDPRRRGLARMQKPESYKTVICQAWLESKTCSFADNCRFAHGEEELRPTFVEPLQNNKYKTKLCDKYTTTGLCPYGKRCLFIHPDHGPNAYIRADKLLEVSQRHALADIRDQMEQHIMTNGRIAAPPLSAIQHPLEMFARPSTPDEPAAKLPLGPTPVSTRGPRYELPTKELHDAEGAMTYPPSRWPLDPSMFALDAWNMAHRPASPLDSMVLGSAPNAGSFGMLGKQNTPGGVSGYSSAGSTPSQDLSSSSLNAASAAAAAAYFANSAVAQSLLMKSVATDPMMSCNGPFSPMPGFDQLAENMTKHLNLW
B2: DCAP-2 (protein, UniProt O62255 1-786)
chain: MEISTENWCKKPKNRSIFSKNISFQKQNKSTEEPPSSVQKLLASLQQAQNKSDLSEQPSTSKPKKNEKRKKAVAQAPASAPAPGPEEKKKQPKRASVGARMQQQAENARISQTKRPRQVSTSKGSSRNTTAPEQQNYQQQQQQYKGPRIPTDILDELEFRFISNMVECEINDNIRVCFHLELAHWYYIDHMVEDDKISGCPNVGSRDFNFQMCQHCRVLRKYAHRADEVLAKFREYKSTVPTYGAILVDPEMDHVVLVQSYFAKGKNWGFPKGKINQAEPPRDAAIRETFEETGFDFGIYSEKEKKFQRFINDGMVRLYLVKNVPKDFNFQPQTRKEIRKIEWFKIDDLPTDKTDELPAYLQGNKFYMVMPFVKDIQIYVQKEKEKLRRRKAEAVQSTPSSSIFSQLFPAQPPPPVPEDATPTRPMYKRLTSEELFSAFKNPPAGEVARPTLPDMSPAVNGLDTLAVLGICTPLKPGASLNEFSGAPQNCPMISEEAGSPADPSAEIGFAMPMDLKQPVVTSDHPWQHHKISDSSAPPQTLESHQGWLDTQLVNTIMHSPNHPLPPTSNSPATPTAVLGHLIGKPIQPQAILPQAATPTALGSAEKPKSSRISLSDNSAFKAISSTQKQSIPKATAAPPSTEKTRSASLSGSSQVVGKPARNLFNSVVSPVSSGIQSIQGDGGAWEDVWFREQLAATTTAGTSISSLAASNQELAMINREETPIEDPYFKQQAYQKAQKAQSLIPACSQWTNSIKLDIDYVVGPLSFWMQQFSTKSPVSGTGPQLP
B3: MEG-2 (protein, UniProt Q21127 1-819)
chain: MENCDDLSSDENLPPPGDHRREQSQERARVGNRDESVSSTNMRSIGGAVHNQQQLYWTDMYNGSNNLENFWLCFSGNTSLADDPTVQSDSSASTQSRTNQSGTIAQETDNRNASNFPPRSTTRRGQTYESRDESQGGQAPSHQNQVPGVDRDEYAGDRSNVSINLPSVDQWREYSFSDNSFQGESRTVQRRSSRATHRVKNQFGSIGDGRTSNNTSLQEPVIQDTRNRNRSESSSTMSSQSRTEHAPIFRLQYNYQREADNRSSRLVQIQGHSAPNNANGLQNTGGQAPDIGPEVNGQSSDTRAMNMGNQMAQGDSHVPMNFVPRPLSNGVPRLHGVPRLVDMYDYELAQRAHARRYPTSNMPYGFPNAGFQAPPHMGLWPNNQNADTRAMNMDNRSRDRTFQMPPANAQVPTSSLSGLFNSSINHGSGNQQFQMGQSSSGSAPQLPALPENFLMAHANSQIPTSSLSGLFNAMNHGSGNRMNHSSSGPAPQLPNLPESFLMAHGIGQVETRSPAGPSNSSINHGSGNQQFPVQQSSSRPAPQLPNLPESFLMAHGLSQIQTSSTAGPSNSSMNHGSGNQQFRMGQSSSRPAPQLPSLQESFLMAHGIAQVETSSTAGPSNSSMNHGSGNQQFPVQQSSSRPAPHLPDLIRQEEEFLNTLEFEQFARRLYNDLLPGVDPNYDSGTSTSETPVLKFSITLKAMLYDYWRTMVQMQYRGANINFLQSIINLNARSAALNSSNARASGSADVQNQTVSATVEGADDASANVNALSDLLAQSFPRQAEGEASRRNDIDHPEDDLNQADSPKSDNQSDKDPPSN

In the experiment the target is MEG-1::GFP (C. elegans) (UniProt Q21126). In words: affinity purification with mass spectrometry; MEG-1::GFP immunoprecipitated from early embryo lysates with anti-GFP nanobody magnetic beads (4°C, 90 min; IP buffer 300 mM KCl, 50 mM HEPES pH 7.4, 1 mM EGTA, 1 mM MgCl2, 1% glycerol, 0.1% NP-40); LC-MS-MS; control: wild-type lysates with untagged MEG-1; two biological replicates.
With NTL-1 (from UniProt Q20937 1-2641), the binding entry is “binds”.
For B1, the binding result is “binds”.
Regarding B2, the binding result is reported as “binds”.
As for B3, the binding result was “binds”.
